These are yes or no findings as the source states them, for the method shown. In cells and extracts the contact can be indirect. Binding calls can cover weak binding; strength is not graded here.
Experiments:
[1] = molecular target: PKA RIα, Rluc PCA reporter (UniProt P10644); experiment: split reporter
[2] = molecular target: Protein kinase C beta II (PKCβII) WT, Rluc PCA reporter (UniProt P05771); experiment: split reporter

Protein sequences, listed by entry. Tags and fused reporters are not part of them.
UniProt P10644: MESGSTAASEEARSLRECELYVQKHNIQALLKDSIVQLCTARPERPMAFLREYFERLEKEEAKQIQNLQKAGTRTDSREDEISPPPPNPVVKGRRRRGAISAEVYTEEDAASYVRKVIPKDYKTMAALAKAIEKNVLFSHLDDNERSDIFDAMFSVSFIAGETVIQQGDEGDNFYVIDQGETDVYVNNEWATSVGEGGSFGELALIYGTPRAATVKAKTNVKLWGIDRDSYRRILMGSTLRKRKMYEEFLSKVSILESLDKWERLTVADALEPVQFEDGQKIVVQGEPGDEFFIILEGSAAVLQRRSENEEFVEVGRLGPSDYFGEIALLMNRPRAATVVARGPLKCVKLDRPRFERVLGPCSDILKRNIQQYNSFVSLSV

For “Protein kinase C beta II D465H (PKCβII D465H), Rluc PCA reporter (from UniProt P05771-2) (enzyme)”, the binding [1] was “binds” and the binding [2] was “binds”.

From article doi:10.1101/2025.05.30.657104
